This experiment concerns the target T1, His6-Strep-Bub1^ΔK (human) (UniProt O43683).
T1 sequence: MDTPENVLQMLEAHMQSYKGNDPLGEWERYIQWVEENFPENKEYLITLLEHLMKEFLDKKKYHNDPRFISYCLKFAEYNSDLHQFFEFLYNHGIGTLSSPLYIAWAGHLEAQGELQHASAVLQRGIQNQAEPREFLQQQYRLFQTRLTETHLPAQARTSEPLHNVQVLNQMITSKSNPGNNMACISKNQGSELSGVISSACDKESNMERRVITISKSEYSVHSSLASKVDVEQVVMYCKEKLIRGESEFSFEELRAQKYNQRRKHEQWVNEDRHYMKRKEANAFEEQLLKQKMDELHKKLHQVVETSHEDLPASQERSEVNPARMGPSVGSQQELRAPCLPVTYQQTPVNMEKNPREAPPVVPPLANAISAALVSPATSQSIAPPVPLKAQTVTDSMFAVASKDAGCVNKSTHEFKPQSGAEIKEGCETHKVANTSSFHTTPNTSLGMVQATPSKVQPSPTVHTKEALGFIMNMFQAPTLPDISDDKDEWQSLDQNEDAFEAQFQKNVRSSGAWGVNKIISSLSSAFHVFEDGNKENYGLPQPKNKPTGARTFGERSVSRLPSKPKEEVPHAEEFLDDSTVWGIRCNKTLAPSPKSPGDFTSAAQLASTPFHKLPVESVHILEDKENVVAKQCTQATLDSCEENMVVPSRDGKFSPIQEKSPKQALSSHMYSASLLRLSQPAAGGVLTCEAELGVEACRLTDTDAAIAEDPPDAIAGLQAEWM
Put plainly: co-purification; co-expressed in insect cells; Strep-Tactin (Bub1–Bub3) or glutathione beads (Cdk1–Cyclin B1).

By UniProt entry, the sequences of proteins in these tests, tags left out.
UniProt O43684: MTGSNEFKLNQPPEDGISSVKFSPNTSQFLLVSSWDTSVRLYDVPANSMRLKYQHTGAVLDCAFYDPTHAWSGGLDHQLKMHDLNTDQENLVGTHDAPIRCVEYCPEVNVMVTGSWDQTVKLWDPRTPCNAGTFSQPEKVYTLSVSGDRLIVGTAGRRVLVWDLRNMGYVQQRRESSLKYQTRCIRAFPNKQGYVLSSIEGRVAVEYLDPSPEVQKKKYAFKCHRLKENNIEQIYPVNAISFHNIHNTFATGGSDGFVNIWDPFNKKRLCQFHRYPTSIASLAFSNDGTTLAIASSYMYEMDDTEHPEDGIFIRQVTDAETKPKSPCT

No constants are given. Whether binding was seen depends on the method and setting. Some binding calls cover weakened binding; strength is not graded here. Where a sequence is shown, tags or fusion partners need not be part of it.

On to His6-Bub3 (from UniProt O43684 1-328), for which the binding entry was “binds”.

These data come from publication PMC5268738, “A sequential multi-target Mps1 phosphorylation cascade promotes spindle checkpoint signaling” (eLife, 2017).
